# The list shows a part of the results.
# Biological target: T1, OsSMF1 (Oryza sativa, UniProt Q6ZLB0 1-436)
# T1 sequence: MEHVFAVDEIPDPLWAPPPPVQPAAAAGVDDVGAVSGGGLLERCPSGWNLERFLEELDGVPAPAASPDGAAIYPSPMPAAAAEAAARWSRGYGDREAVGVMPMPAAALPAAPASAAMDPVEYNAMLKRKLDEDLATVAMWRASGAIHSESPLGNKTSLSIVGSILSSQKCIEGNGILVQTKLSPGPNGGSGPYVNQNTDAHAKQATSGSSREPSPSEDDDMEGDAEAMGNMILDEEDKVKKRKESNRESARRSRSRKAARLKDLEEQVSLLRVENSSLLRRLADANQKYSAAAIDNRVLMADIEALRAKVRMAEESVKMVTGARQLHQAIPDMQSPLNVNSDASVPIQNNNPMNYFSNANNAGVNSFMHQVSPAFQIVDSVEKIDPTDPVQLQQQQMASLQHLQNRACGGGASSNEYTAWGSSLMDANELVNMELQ
# Test: protein-binding microarray (RPBM); PBS, 2% BSA, 51.3 ng/ul salmon testes DNA, 50 uM zinc acetate, 200 nM TF, 25 C, 1 h; high values mean tight binding
# Details: protein: recombinant; tags: N-terminal polyhistidine and DsRed monomer fusion (pET32a); chain copies: 2; label: CyDye5-dUTP incorporated in the synthesized complementary strand; 3' TTTTT single-stranded linker to array surface; dsDNA, one strand shown
# Method in brief: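 Transcription factors were made in E. coli BL21-CodonPlus as N-terminal fusions to a polyhistidine tag and DsRed, then purified on Ni–NTA. After primer extension with Cy5-dUTP and blocking with 2% BSA, a custom Agilent array was exposed for 1 h at 25 °C to 200 nM protein in PBS, 2% BSA, salmon testes DNA and 50 µM zinc acetate. Washed arrays were scanned on an Axon 4000B, and the binding signal is per-feature fluorescence intensity in arbitrary units.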
row,Sequence,binding signal
1,GAGTTGATGTTTTAGTTGAGCGAAAAGAGAAAACGAGGAGCGGAGTCACCTAGTGCAG,37500 fluorescence intensity (a.u.)
2,CGGGAGGAATCTACCCATGGGAGTGGGACGCCCAATGCCTCGGAGTCACCTAGTGCAG,20300 fluorescence intensity (a.u.)
3,CCCATGGCGTGCCACTCCGGCGGTCCGGCCGCCACGTCAGCGGAGTCACCTAGTGCAG,38500 fluorescence intensity (a.u.)
4,ACTAGCTAGTGATCGTATCAGTGTCTGTCACCTGCAGGATCGGAGTCACCTAGTGCAG,3280 fluorescence intensity (a.u.)
5,GTGGAGTGAATTTCATGACTAGGTCAATTTTAGTAATGTTCGGAGTCACCTAGTGCAG,3220 fluorescence intensity (a.u.)
6,TCCACAGAAAACATGAGAAGGATGAACAAATGCATGCCATCGGAGTCACCTAGTGCAG,36600 fluorescence intensity (a.u.)
7,TCGCACACCACAACACACACCTGCCGGCCCCATCACCCCGCGGAGTCACCTAGTGCAG,3190 fluorescence intensity (a.u.)
8,ATCGAGGTATTCAAAGTGAACTTATTTTCCATACGTATACCGGAGTCACCTAGTGCAG,5350 fluorescence intensity (a.u.)
9,ATCTGTTTTATAGTATGTCATATCATTCACAACATTGGGTCGGAGTCACCTAGTGCAG,4120 fluorescence intensity (a.u.)
10,TTAGAGATGCTGCGTTGTCGTGAGTACTCTCTTTCCTTCGCGGAGTCACCTAGTGCAG,3680 fluorescence intensity (a.u.)
11,CCGCTATGCCGCCACGTCTTCCACAATGGAAAGGCCCATACGGAGTCACCTAGTGCAG,7280 fluorescence intensity (a.u.)
12,AAACATAAGATGCCAAGTGGCATATCTCTACTGTTTTGCCCGGAGTCACCTAGTGCAG,3950 fluorescence intensity (a.u.)
13,GAGGAGGAACGATGGTGGCTCATGGAGAAAGAGCGTTACGCGGAGTCACCTAGTGCAG,22600 fluorescence intensity (a.u.)
14,ACGTACCAACGCGCGCACCGGAGCTTTGCACACGTATACGCGGAGTCACCTAGTGCAG,5940 fluorescence intensity (a.u.)
15,CTGTCTACTAGTAGTACTACTGCTACCTGCCCCTGTCAGTCGGAGTCACCTAGTGCAG,8850 fluorescence intensity (a.u.)
16,AAGGTAGAGGAGGAGAAGTTGGGGTTTGGGAGGGCCAGCGCGGAGTCACCTAGTGCAG,3290 fluorescence intensity (a.u.)
17,GGTATGACTTGCTGAGTACAGTGGGTAGTACTCAGTCTTGCGGAGTCACCTAGTGCAG,3210 fluorescence intensity (a.u.)
18,AGCCAAAGATTTATGCGAACAAGAACGAGCTGACGAATCACGGAGTCACCTAGTGCAG,3700 fluorescence intensity (a.u.)
19,CCGGCGGCGGTGGCCGTGACGGTGGCGACGGCCATGCTGACGGAGTCACCTAGTGCAG,3240 fluorescence intensity (a.u.)
20,GTGCCCGGTATCGACAGTTGGAGGATGAATTATACCCGGTCGGAGTCACCTAGTGCAG,37500 fluorescence intensity (a.u.)
21,AAAATATGACTAACTATGACAGGTATGAACGGTGAGCTGCCGGAGTCACCTAGTGCAG,3510 fluorescence intensity (a.u.)

# Two successive records out of the list so far:
row,Sequence,binding signal
2,CGGGAGGAATCTACCCATGGGAGTGGGACGCCCAATGCCTCGGAGTCACCTAGTGCAG,20300 fluorescence intensity (a.u.)
3,CCCATGGCGTGCCACTCCGGCGGTCCGGCCGCCACGTCAGCGGAGTCACCTAGTGCAG,38500 fluorescence intensity (a.u.)

# Additional results follow.

row,Sequence,binding signal
1,AAGCCTAAAACCTCCCCATCCACGTCACCCATCCTCCTCCCGGAGTCACCTAGTGCAG,22300 fluorescence intensity (a.u.)
2,TGGCAAGTCATCGTCCAGCTAAGCTGTATCTATCCGTAGTCGGAGTCACCTAGTGCAG,4110 fluorescence intensity (a.u.)
3,CGGCAAGTGATAGGGTTGTATCTAGGGTTAGTACTACTGGCGGAGTCACCTAGTGCAG,4260 fluorescence intensity (a.u.)
4,ATAGAGTAAGTTGTTCCCCACTAACGTCAGCTAGCGAGCGCGGAGTCACCTAGTGCAG,5400 fluorescence intensity (a.u.)
5,AGATCCATGTCAGCATATTTTCCTACTTGGAAGAGATTAACGGAGTCACCTAGTGCAG,6110 fluorescence intensity (a.u.)
6,CTCGCGGGATCTCGCGTGTTTCGGTGGAGGGGATTGCGGCCGGAGTCACCTAGTGCAG,3430 fluorescence intensity (a.u.)
7,CAGGAGGTGGAACTCCGAGAGGCTGGACCTGGACGCGGTGCGGAGTCACCTAGTGCAG,25200 fluorescence intensity (a.u.)
8,TAGTAACCTCTTTCTTCTTCCATCCATCGCCGCCGCCGCCCGGAGTCACCTAGTGCAG,8370 fluorescence intensity (a.u.)
9,ACAGTAGGGGACTGCTGATCGGCGACTGACCGCGCGCGCCCGGAGTCACCTAGTGCAG,4560 fluorescence intensity (a.u.)
10,CGGAAAAGAAAGCCATGGAAGAAATGACGCAAGCAGCGGACGGAGTCACCTAGTGCAG,4230 fluorescence intensity (a.u.)
11,ATGATAAAAGGAGGTTAACCTGTGACCACATCATCTGCACCGGAGTCACCTAGTGCAG,4400 fluorescence intensity (a.u.)
12,TACACCAAATTGACTAGGCATATATTTGTACCACTCATTCCGGAGTCACCTAGTGCAG,5060 fluorescence intensity (a.u.)
13,ACATATGGTCTTTTGGTCACCTCCACTGCTGACTAGGCATCGGAGTCACCTAGTGCAG,21000 fluorescence intensity (a.u.)
14,ACGGGCGGGCGTACGACGTCACACGTGCACCCACGCGCCGCGGAGTCACCTAGTGCAG,7350 fluorescence intensity (a.u.)
15,AAAATATTATGGGTCCCACTGATTATGTGGGACCCACATGCGGAGTCACCTAGTGCAG,3550 fluorescence intensity (a.u.)
16,TCTGATGGATCAGCATGCACGTAGTGTACACGTCACTCCACGGAGTCACCTAGTGCAG,21200 fluorescence intensity (a.u.)
17,TCTCAACCCTCAGGTAATCTACTGCTGCGCGTGGTGAATCCGGAGTCACCTAGTGCAG,4080 fluorescence intensity (a.u.)
18,TTGACTGTGGGACACACGTGTCAGAGAGTGACCTGCGTCTCGGAGTCACCTAGTGCAG,11300 fluorescence intensity (a.u.)
19,TCATCGTGGACACGTACCCTCGTGCATGCGCGCATGGTGTCGGAGTCACCTAGTGCAG,5950 fluorescence intensity (a.u.)
20,TTGTGACCAAATAAGTTCTGCTTCTTTGGTAACTTTATTCCGGAGTCACCTAGTGCAG,14000 fluorescence intensity (a.u.)
21,CCGCCAACACCTCACCCGCCGCCAACCACGACCGCGCGGCCGGAGTCACCTAGTGCAG,31900 fluorescence intensity (a.u.)

# From publication PMC7819943, “Rice protein-binding microarrays: a tool to detect cis-acting elements near promoter regions in rice”
